Values from PubChem BioAssay AID1259405 (NCATS, 2018).

Assay: 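Knock-downs that lift recombinant protein yield in hamster ovary cells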 (primary screen)
Cell system: Chinese hamster CHO-K1 ovary cells with stable secreted eGFP expression
Reagents: single siRNA against mouse genes, 0.8 pmol siRNA per well (2 µl of 400 nM stock)
Timing: 3 days
Measured: 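Percent of the per-plate non-targeting control median for intracellular GFP per well by laser scanning cytometry and for cell viability by ATP luminescence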
Direction: GFP, % of control: higher = more GFP per well, higher productivity; viability (ATP), % of control: higher = more viable cells (more ATP)
Hit rule: 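a knock-down is called active if GFP reaches 120% or more of non-targeting control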
The whole screen tested about 50,000 reagents; below is a random part of them. About 4,000 of them (8%) count as active. 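Mouse siRNA library applied to hamster cells; one well for each siRNA.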

Tmem229a (transmembrane protein 229A) [SID363552228]
- GFP, % of control: 90.1
- viability (ATP), % of control: 81
- call: inactive

Tmem229a (transmembrane protein 229A) [SID363585364]
- GFP, % of control: 113
- viability (ATP), % of control: 112
- call: inactive

Tmem229a (transmembrane protein 229A) [SID363585715]
- GFP, % of control: 108
- viability (ATP), % of control: 131
- call: inactive

Trim65 (tripartite motif-containing 65) [SID363569184]
- GFP, % of control: 107
- viability (ATP), % of control: 101
- call: inactive

Trim65 (tripartite motif-containing 65) [SID363583616]
- GFP, % of control: 65.5
- viability (ATP), % of control: 79.1
- call: inactive

Dmd (dystrophin, muscular dystrophy) [SID363541181]
- GFP, % of control: 45.7
- viability (ATP), % of control: 55.4
- call: inactive

Dmd (dystrophin, muscular dystrophy) [SID363555808]
- GFP, % of control: 72.5
- viability (ATP), % of control: 79.1
- call: inactive

Dmd (dystrophin, muscular dystrophy) [SID363566097]
- GFP, % of control: 114
- viability (ATP), % of control: 81.1
- call: inactive

Hhip (Hedgehog-interacting protein) [SID363539974]
- GFP, % of control: 77.9
- viability (ATP), % of control: 68.4
- call: inactive

Hhip (Hedgehog-interacting protein) [SID363561275]
- GFP, % of control: 130
- viability (ATP), % of control: 95.8
- call: active

Hhip (Hedgehog-interacting protein) [SID363564311]
- GFP, % of control: 103
- viability (ATP), % of control: 70.4
- call: inactive

Kcnk7 (potassium channel, subfamily K, member 7) [SID363547740]
- GFP, % of control: 34.6
- viability (ATP), % of control: 39.5
- call: inactive

Kcnk7 (potassium channel, subfamily K, member 7) [SID363558509]
- GFP, % of control: 74.7
- viability (ATP), % of control: 58.2
- call: inactive

Kcnk7 (potassium channel, subfamily K, member 7) [SID363560267]
- GFP, % of control: 52.4
- viability (ATP), % of control: 86.2
- call: inactive

Zfp781b (zinc finger protein 781B) [SID363555380]
- GFP, % of control: 51.6
- viability (ATP), % of control: 66.1
- call: inactive

Zfp781b (zinc finger protein 781B) [SID363564041]
- GFP, % of control: 46.4
- viability (ATP), % of control: 51.9
- call: inactive

Zfp781b (zinc finger protein 781B) [SID363587587]
- GFP, % of control: 114
- viability (ATP), % of control: 117
- call: inactive

Slc4a8 [SID363574703]
- GFP, % of control: 76.1
- viability (ATP), % of control: 64.4
- call: inactive

Slc4a8 [SID363575759]
- GFP, % of control: 75.8
- viability (ATP), % of control: 90.7
- call: inactive

Slc4a8 [SID363580335]
- GFP, % of control: 109
- viability (ATP), % of control: 75.8
- call: inactive

Next part; the last 5 above are carried over.
Zfp781b (zinc finger protein 781B) [SID363564041]
- GFP, % of control: 46.4
- viability (ATP), % of control: 51.9
- call: inactive

Zfp781b (zinc finger protein 781B) [SID363587587]
- GFP, % of control: 114
- viability (ATP), % of control: 117
- call: inactive

Slc4a8 [SID363574703]
- GFP, % of control: 76.1
- viability (ATP), % of control: 64.4
- call: inactive

Slc4a8 [SID363575759]
- GFP, % of control: 75.8
- viability (ATP), % of control: 90.7
- call: inactive

Slc4a8 [SID363580335]
- GFP, % of control: 109
- viability (ATP), % of control: 75.8
- call: inactive

Cfap52 (cilia and flagella associated protein 52) [SID363540671]
- GFP, % of control: 109
- viability (ATP), % of control: 107
- call: inactive

Cfap52 (cilia and flagella associated protein 52) [SID363543122]
- GFP, % of control: 32.8
- viability (ATP), % of control: 51.1
- call: inactive

Cfap52 (cilia and flagella associated protein 52) [SID363552615]
- GFP, % of control: 104
- viability (ATP), % of control: 89.4
- call: inactive

Eif3d (eukaryotic translation initiation factor 3, subunit D) [SID363553963]
- GFP, % of control: 92.1
- viability (ATP), % of control: 95.3
- call: inactive

Eif3d (eukaryotic translation initiation factor 3, subunit D) [SID363561920]
- GFP, % of control: 64.5
- viability (ATP), % of control: 70.3
- call: inactive

Eif3d (eukaryotic translation initiation factor 3, subunit D) [SID363565658]
- GFP, % of control: 110
- viability (ATP), % of control: 68.5
- call: inactive

Spata32 (spermatogenesis associated 32) [SID363552309]
- GFP, % of control: 93.3
- viability (ATP), % of control: 85.9
- call: inactive

Spata32 (spermatogenesis associated 32) [SID363585445]
- GFP, % of control: 91.8
- viability (ATP), % of control: 101
- call: inactive

Spata32 (spermatogenesis associated 32) [SID363585796]
- GFP, % of control: 114
- viability (ATP), % of control: 99.5
- call: inactive

Mrpl27 (mitochondrial ribosomal protein L27) [SID363553908]
- GFP, % of control: 96.8
- viability (ATP), % of control: 86.1
- call: inactive

Mrpl27 (mitochondrial ribosomal protein L27) [SID363561865]
- GFP, % of control: 76.4
- viability (ATP), % of control: 52.2
- call: inactive

Mrpl27 (mitochondrial ribosomal protein L27) [SID363565603]
- GFP, % of control: 86.2
- viability (ATP), % of control: 87.1
- call: inactive

Rrs1 (ribosome biogenesis regulator 1) [SID363553919]
- GFP, % of control: 59.7
- viability (ATP), % of control: 56.4
- call: inactive

Rrs1 (ribosome biogenesis regulator 1) [SID363561876]
- GFP, % of control: 136
- viability (ATP), % of control: 49.6
- call: active

Rrs1 (ribosome biogenesis regulator 1) [SID363565614]
- GFP, % of control: 72.6
- viability (ATP), % of control: 93.9
- call: inactive

Wdr45b (WD repeat domain 45B) [SID363540752]
- GFP, % of control: 84.6
- viability (ATP), % of control: 118
- call: inactive

Wdr45b (WD repeat domain 45B) [SID363543203]
- GFP, % of control: 91.1
- viability (ATP), % of control: 98.2
- call: inactive

Wdr45b (WD repeat domain 45B) [SID363552696]
- GFP, % of control: 96.4
- viability (ATP), % of control: 107
- call: inactive

Mex3b (mex3 RNA binding family member B) [SID363555009]
- GFP, % of control: 45.8
- viability (ATP), % of control: 36.1
- call: inactive

Mex3b (mex3 RNA binding family member B) [SID363568456]
- GFP, % of control: 60.8
- viability (ATP), % of control: 67.3
- call: inactive

Mex3b (mex3 RNA binding family member B) [SID363586515]
- GFP, % of control: 80.1
- viability (ATP), % of control: 85.4
- call: inactive
